Test results as given in PubChem BioAssay AID504834 (National Center for Advancing Translational Sciences (NCATS), 2011).
Several values for one entry are separate records, joined by “and”; a condition that tells them apart may be missing. Equal entries are not always repeated. About 22,000 (6.9%) of roughly 320,000 compounds were called active. The shares of active, inactive and inconclusive entries below differ from those in the screen. Calls come from the whole dose curve; as a rule, active = well fitted inhibition curve with a large enough effect; inconclusive = small, poorly fitted or top-dose-only effect, or another doubt; inactive = no such curve, though single readings can be large or run the other way. Potencies of inconclusive entries are doubtful fits and often do not repeat. The source holds several records for some structures; these can differ, active in one and inactive in another.

Test: Primary qHTS for delayed death inhibitors of the malarial parasite plastid, 96 hour incubation
Settings: P. falciparum luciferase reporter growth; series mostly up to 28.7 µM
In short: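 Delayed-death screen, second-generation endpoint: infected erythrocytes, 2% hematocrit, 0.05% parasitemia final; 96 hours at 37 C, 5% CO2; luciferase detection reagent; luminescence decrease equals reduced growth.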
Potency is the fitted concentration of half-maximal effect.

Compound | Potency
CCOC(=O)c1sc2nc(C)[nH]c(=O)c2c1C | inactive
O=c1c2ccccc2nnn1COc1cccc2ccccc12 | inactive
CC(C)(C)c1ccc(-c2n[nH]c(=S)n2-c2ccccc2)cc1 | active: 2.94 µM
O=C(CSc1nnnn1C1CCCC1)Nc1ccc2c(c1)OCO2 | inconclusive: 18.5 µM [inhibitor, single point]
Cc1ccc(C)n1-c1ccc(C(=O)/C=C/N(C)C)cc1 | active: 14.7 µM
COc1ccc(C(=O)n2cnc3ccccc32)cc1 | inconclusive: 10.4 µM [inhibitor, single point]
O=C(c1cccc(C(F)(F)F)c1)C1CCCN(Cc2ccccc2O)C1 (stereo not drawn) | active: 8.28 µM
CCOc1ccc(NC(=O)c2ccc(N3CC4CC(C3)c3cccc(=O)n3C4)c(N)c2)cc1 (stereo not drawn) | inconclusive: 18.5 µM [inhibitor, single point]
Cc1cc(NC(=O)CCC(=O)N(c2ccccc2C)C(C(=O)NC2CCCC2)c2ccccc2)no1 (stereo not drawn) | inactive
CC(C)(C)OC(=O)NCCCC[C@H](NC(=O)c1nc[nH]c1C(=O)NC(c1ccccc1)c1ccccc1)C(=O)OC(C)(C)C | active: 2.08 µM
COc1ccc(NC(=O)C2CCN(S(=O)(=O)c3c(C)nn(C)c3C)CC2)cc1 | inconclusive: 10.4 µM [inhibitor, single point]
CC(=O)c1cnc2n(c1=O)CCS2 | inconclusive: 0.928 µM [inhibitor, full curve, poor fit]
CC(=O)c1cccc(NC(=O)CCOc2ccccc2)c1 | inactive
Cc1cc(C)n(-c2cccc3cccnc23)n1 | inconclusive: 3.7 µM [inhibitor, full curve]
O=C(CSc1cccs1)Nc1cccc2ccccc12 | inconclusive: 10.4 µM [inhibitor, partial curve]
Cc1cccnc1NC(=O)CCc1c[nH]c2ccccc12 | inactive
COC(=O)c1cc(-c2ccc(Br)cc2)on1 | inactive
O=C(N/N=C/c1ccc(OC(=O)c2ccccc2Br)cc1)c1ccccn1 | inconclusive: 9.28 µM [inhibitor, single point]
CCOc1ccccc1N1C(=O)CC(Nc2ccc(N3CCOCC3)cc2)C1=O (stereo not drawn) | inactive
CCOC(=O)CSc1nc(N2CCOCC2)c2c(c1C#N)CC(C)(C)OC2 | inconclusive: 2.33 µM [inhibitor, full curve, poor fit]
CC(NC(=O)c1ccco1)c1nc(-c2ccc(C(C)(C)C)cc2)no1 (stereo not drawn) | inconclusive: 10.4 µM [inhibitor, single point]
CCOC(=O)c1cnc(SC)nc1Oc1cccc(NS(=O)(=O)c2ccc(Cl)cc2)c1 | inconclusive: 4.15 µM [inhibitor, single point]
CCCc1cc(-c2nc(-c3ccc(Cl)cc3)cs2)ccn1 | inactive
COC(=O)c1ccc2c(=O)n(Cc3ccco3)c(SCC(=O)Nc3ccccc3Cl)nc2c1 | inconclusive: 14.7 µM [inhibitor, single point]

Compound | Potency
O=C(Nc1cccc(Cl)c1)NC1CC2CCC1C2 (stereo not drawn) | inactive
CCCOc1ccc(C(=O)c2nc3c(n2O)CCCC3)cc1 | inconclusive: 16.5 µM [inhibitor, single point]
CCOC(=O)c1nc(C)sc1-c1ccnn1S(=O)(=O)c1ccc(C)cc1 | inconclusive: 4.15 µM [inhibitor, single point]
CCCCCCNS(=O)(=O)c1ccc(Cl)s1 | inconclusive: 5.22 µM [inhibitor, partial curve, poor fit]
CN(C)/C=N/c1[nH]ncc1C#N | inactive
CC12CCC(C)(c3nc4ccccc4nc31)C2(C)C | inconclusive: 0.0029 µM [inhibitor, full curve, poor fit]
Cc1ccc(S(=O)(=O)NNC(=S)Nc2ccc(Cl)cc2)cc1 | inactive
CC(C)C(=O)NS(=O)(=O)c1ccc(NS(C)(=O)=O)cc1 | inactive
O=C(Nc1cccc(Cl)c1)NC1(C(=O)NCc2cccs2)CCCCC1 | inconclusive: 18.5 µM [inhibitor, single point]
COc1ccc(-c2cc(C(F)(F)F)n3nc(C(=O)N4CCOCC4)nc3n2)cc1 | inconclusive: 0.0029 µM [inhibitor, full curve, poor fit]
Cc1ccc(-n2nc(C)c3c2OC(N)=C(C#N)C3c2cccs2)cc1 (stereo not drawn) | inactive
O=C1CC(C(=O)Nc2ccc(Cl)cc2)n2ncnc2N1 (stereo not drawn) | inconclusive: 0.0465 µM [inhibitor, full curve, poor fit]
CC(=O)Nc1ccc(NS(=O)(=O)c2ccc3[nH]c(=O)[nH]c3c2)cc1 | inconclusive: 11.7 µM [inhibitor, partial curve, poor fit]
C/C(=N/NC(=O)CNC(=O)/C=C/c1ccco1)c1ccc(Cl)cc1 | inconclusive: 3.7 µM [inhibitor, single point]
Cc1ccc(C)c(NC(=S)NCCN(C2CCCCC2)C2CCCC2)c1 | inconclusive: 18.5 µM [inhibitor, single point]
COc1ccccc1OCCNC(=O)C1CC(=O)N(Cc2ccccc2)C1 (stereo not drawn) | inactive
C/C(=N\NC(=O)c1ccc([N+](=O)[O-])cc1)c1cccc([N+](=O)[O-])c1 | inconclusive: 18.5 µM [inhibitor, single point]
O=C(O)COc1ccccc1/C=N/NC(=O)CSc1nc2ccccc2c(=O)n1-c1ccc(Cl)cc1 | inactive
O=Cc1c(N2CCSCC2)nc2ccccn2c1=O | inactive
Cc1ccc(Cn2ccc(NC(=O)c3cc(CC(C)C)on3)n2)cc1 | inactive
COc1ccc(N2C(=O)CC(N3CCN(S(=O)(=O)c4cc(C)ccc4C)CC3)C2=O)cc1 (stereo not drawn) | inconclusive: 20.8 µM [inhibitor, single point]
CCC(C)[C@@H](N)C(=O)N/N=C/c1cccc2nccnc12 (stereo partly drawn) | inconclusive: 18.5 µM [inhibitor, single point]
Cc1nn(-c2ccccc2)c(Cl)c1CN(C(=O)CCl)c1ccc(Cl)cc1 | inconclusive: 1.04 µM [inhibitor, full curve, poor fit]

Some of the entries so far, in CSV form:
Compound,Potency
COc1ccccc1OCCNC(=O)C1CC(=O)N(Cc2ccccc2)C1 (stereo not drawn),inactive
C/C(=N\NC(=O)c1ccc([N+](=O)[O-])cc1)c1cccc([N+](=O)[O-])c1,"inconclusive: 18.5 µM [inhibitor, single point]"
O=C(O)COc1ccccc1/C=N/NC(=O)CSc1nc2ccccc2c(=O)n1-c1ccc(Cl)cc1,inactive
